Data taken from patent US20260191982A1 (Genome & Company, Inc., priority 2022, published 2026).

Assay: general procedure: Fmoc solid-phase peptide synthesis; 2-CTC resin; Fmoc-Xxx-Wang resin (loading 0.60 mmol/g; Bachem); diisopropyl carbodiimide/HOBT; HBTU/DIEA; HATU/DIEA in solution
Settings: for purity (crude or final not stated): whole synthesis; for purity (crude or final not stated) / final HPLC purity: UV purity (UPLC-MS)

Row | Substance | purity (crude or final not stated) | other results
1 | ACit-Lys(PEG4-Mal-Cys-Ac)-Phe-OH | 96% | 
2 | ACit-Phe-Lys(PEG4-Mal-Cys-Ac)-OH | 96% | 
3 | AF-Arg-Lys(PEG4-Mal)-Phe-OH | 96% | 
4 | AF-Arg-Lys(PEG4-Mal-Cys-Ac)-Phe-OH | 94% | 
5 | AF-Arg-Phe-Lys(PEG4-Mal)-OH | 98% | 
6 | AF-Arg-Phe-Lys(PEG4-Mal-Cys-Ac)-OH | 90% | 
7 | AF-Cit-Lys(PEG4-Mal-Cys-Ac)-Phe-OH | 90% | 
8 | AF-Cit-Lys(PEG5-ma)-Tyr |  | conjugation yield (conjugation step): 16% yield; final HPLC purity (conjugation step): 100% UV purity
9 | DM1-Mal-Phe-Cit-Lys(PEG4-Mal-Cys-Ac)-Phe-OH | 97% | 
10 | DM1-Mal-Phe-Cit-Phe-Lys(PEG4-Mal-Cys-Ac)-OH | 94% | 
11 | DM1-Mal-Phe-Lys-Lys(PEG4-Mal-Cys-Ac)-Phe-OH | 98% | 
12 | DM1-Mcc-Cit-Lys(PEG5-Mal-Cys-Ac)-Tyr-OH | 89% | 
13 | DM1-Mcc-Phe-Cit-Lys(PEG5-Mal-Cys-Ac)-Tyr-OH | 99% | 
14 | DM1-Mcc-Phe-Lys(PEG5-Mal-Cys-Ac)-Tyr-OH | 89% | 
15 | MMAF-Cit-Lys(ma)-Tyr-OH |  | step yield (late stage modification step): 29% yield; final HPLC purity (late stage modification step): 95% UV purity
